A short description of the experiment: qHTS Assay to Find Inhibitors of Chronic Active B-Cell Receptor Signaling. Conditions: ABC-DLBCL IkBa-CBG/CBR reporter, luminescence ratio (green luciferase fused to IkBa over red control in TMD8 lymphoma cells), 4 h. The method in brief: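 TMD8 ABC-DLBCL cells carrying doxycycline-inducible green luciferase fused to IkappaBalpha plus unfused red luciferase were exposed to compounds (up to 46 uM) for 4 hrs at 37C. Activity came from the overlap-corrected green/red luminescence ratio.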
(Quantitative high-throughput screening tests each substance at several concentrations.)

The mark [1] stands for this setting: measured here: CBR red luminescence, cell number.
The mark [2] stands for this setting: measured here: IkBa-CBG green luminescence.

The list shows a part of the results. The main result of the screen is listed elsewhere. These columns were measured beside it and carry no call. Compounds called inactive in the main read-out are mostly missing here. Potencies come from curve fits of mixed quality, noted in brackets.

Regarding `CC(=O)N(C)C1=C(N2CCOCC2)C(=O)c2ccccc2C1=O`, the AC50 (in general, the concentration giving half of the maximal activity seen) under setting [1] is 14.1 µM [falling, single point].

On to `O=C(CN(Cc1ccc2c(c1)OCO2)C(=O)CNC(=O)c1ccco1)NC1CCCCC1`, for which, under setting [1], the AC50 was 35.5 µM [rising, single point].

With `O=C(O)c1cccc(Cn2c(Cl)c(/C=N/NC(=O)c3ccccc3Cl)sc2=O)c1`, the concentration at half-maximal activity (AC50) under setting [1] was 2 µM [falling, full curve].

`CCCc1cc(=O)[nH]c(SCC(=O)Nc2ccc(S(=O)(=O)N3CCCC3)cc2)n1`: the AC50 under setting [1] was 20.6 µM [rising, single point].

As for `O=C(N/N=C/c1ccccc1OCc1ccccc1Cl)c1cccnc1`, the AC50 under setting [2] is 14.1 µM [falling, partial curve, poor fit].

As to `Cc1c(Cl)cnc(NC(=O)CSc2nnc(C)n2Cc2ccccc2)c1Cl`, under setting [1], the AC50 was 0.517 µM [falling, partial curve, poor fit].

With `COc1ccccc1OCC(=O)Nc1ccc(N2CCOCC2)cc1N1CCOCC1`, the AC50 under setting [1] is 29.1 µM [rising, single point].

`Cc1ccccc1C(=O)Nc1cccc(C(=O)N/N=C/c2ccccn2)c1`: under setting [1], the AC50 was 8.91 µM [falling, partial curve, poor fit].

On to `COc1ccc(Cl)cc1NC(=S)N(CCCN1CCOCC1)Cc1cn(C)c2ccccc12`, for which the half-maximal activity concentration (AC50) under setting [1] is 0.731 µM [falling, full curve, poor fit].

Regarding `Cc1ccc(NC(=O)CCn2cccc2)cc1`, the AC50 under setting [1] was 0.0731 µM [rising, full curve, poor fit].

For `O=C(NC(=S)N1CCCc2ccccc21)c1ccc(Br)cc1`, the AC50 under setting [1] is 8.2 µM [falling, partial curve].

As for `Cc1ccc(-c2nc(C(Cl)Cl)c3ccccc3n2)cc1`, the AC50 reads like this: under setting [1], 11.2 µM [rising, partial curve]; under setting [2], 22.4 µM [falling, single point].

For `COc1ccc(/C=N/NC(=O)c2ccc(COc3ccccc3Cl)o2)cc1`, the AC50 under setting [1] is 0.708 µM [falling, full curve].

Regarding `N/C(=N\OC(=O)c1cc(Cl)ccc1Cl)c1ccncc1`, the AC50 under setting [1] is 4.47 µM [falling, full curve, poor fit].

As for `Cc1ccc(NC2CCCN(C(=O)C3CCCCC3)C2)cc1C` (stereo not drawn), the AC50 under setting [1] is 35.5 µM [falling, single point].

`O=C(CSc1nnc(Cn2nnc(-c3ccccc3)n2)n1-c1ccccc1)Nc1ccccc1`: under setting [1], the AC50 was 25.1 µM [falling, partial curve, poor fit].

`CCCCC#Cc1ccc(C(=O)NNC(=O)Nc2ccccc2)o1`: under setting [1], the AC50 is 14.1 µM [falling, partial curve, poor fit].

Regarding `COc1ccccc1/C=C1\Cc2ccccc2C1=O`, the AC50 under setting [1] is 11.2 µM [falling, partial curve].

With `CC(C)(C)N(NC(=O)Nc1ccc(Cl)c(Cl)c1)C(=O)c1ccccc1`, the half-maximal activity concentration (AC50) by setting is: under setting [1], 22.4 µM [falling, single point]; under setting [2], 35.5 µM [rising, partial curve, poor fit].

With `Cc1ccc(NC(=O)CSc2nnc(-c3ccc(S(=O)(=O)N4CCCC4)cc3)o2)cc1C`, the AC50 under setting [1] is 0.708 µM [rising, full curve, poor fit].

For `Cc1cccc2[nH]c3c(N4CCC5(CC4)OCCO5)ncnc3c12`, under setting [1], the concentration at half-maximal activity (AC50) is 2.82 µM [falling, full curve].

As to `O=C(c1cc2c(=O)oc3ccccc3c2s1)N1CCOCC1`, under setting [1], the AC50 is 2.91 µM [falling, full curve, poor fit].

For the compound `COc1ccc(C2CC(c3ccccc3)=NN2C(=O)CSc2ncn[nH]2)cc1` (stereo not drawn), under setting [1], the concentration at half-maximal activity (AC50) is 1.58 µM [rising, full curve].

As for `COc1ccc(-n2nc(C(=O)N3CCN(Cc4ccc5c(c4)OCO5)CC3)c3ccccc3c2=O)cc1`, the half-maximal activity concentration (AC50) under setting [1] was 0.0731 µM [rising, full curve, poor fit].

For the compound `CC(C)(C)c1cc(C(=O)NNC(=O)Nc2ccccc2)n(Cc2ccccc2)n1`, the AC50 under setting [1] is 22.4 µM [falling, single point].

Regarding `C=CCN1C(=O)c2ccc(C(=O)N3CCC(C(=O)OCC)CC3)cc2C1=O`, under setting [1], the AC50 is 0.146 µM [rising, full curve, poor fit].

With `COc1ccc(NC(=O)c2sccc2SCc2cccc(C(F)(F)F)c2)cc1`, the AC50 under setting [1] is 5.8 µM [falling, partial curve, poor fit].

On to `COc1cccc(/C=C2\SC(=O)N(CCC(=O)NC3CCS(=O)(=O)C3)C2=O)c1` (stereo not drawn), for which the AC50 under setting [1] is 5.62 µM [falling, partial curve].

For `Cn1c(=O)n(C)c2cc(S(=O)(=O)N3CCCc4ccccc43)ccc21`, the AC50 under setting [1] was 5.8 µM [rising, partial curve, poor fit].

Regarding `O=C(O)c1sccc1SCc1ccc(Cl)c(Cl)c1`, under setting [1], the AC50 is 35.5 µM [falling, single point].

For `C=CCN1C(=O)/C(=C/c2ccccc2)S/C1=N/c1nccs1`, the concentration at half-maximal activity (AC50) under setting [1] is 20.6 µM [rising, partial curve].

`O=C(OC(c1ccc(NS(=O)(=O)c2ccccc2)cc1)(C(F)(F)F)C(F)(F)F)c1ccccc1`: the AC50 under setting [1] is 23.1 µM [falling, partial curve].

On to `CC1=CC(C)(C)N(S(=O)(=O)c2ccc(C)cc2)c2ccc(C)cc21`, for which the half-maximal activity concentration (AC50) reads like this: under setting [1], 9.2 µM [rising, partial curve, poor fit]; under setting [2], 8.2 µM [falling, partial curve].

`Cc1cc(C)c2oc(-c3ccc(Cl)c(NC(=O)c4ccc(C#N)cc4F)c3)nc2c1`: the AC50 under setting [1] is 29.1 µM [rising, single point].

Turning to `O=C(CN1CCCCCCC1)N/N=C/c1ccc(F)cc1F`, the AC50 under setting [1] was 0.291 µM [rising, partial curve, poor fit].

In the case of `O=C(O)c1cc(-n2[nH]c(=O)c3ccccc3c2=O)ccc1Cl`, under setting [1], the concentration at half-maximal activity (AC50) is 14.1 µM [falling, partial curve].

As for `O=C1c2ccccc2NC(c2ccccc2)N1/N=C/c1ccccc1` (stereo not drawn), the AC50 under setting [1] was 20 µM [falling, partial curve, poor fit].

Turning to `CSC(SC)=C(C#N)C(=O)c1ccccc1`, the AC50 under setting [1] was 15.8 µM [falling, single point].

For `Cc1cc(C(=O)Nc2ccccn2)cs1`, under setting [1], the AC50 is 29.1 µM [falling, single point].

With `O=C(Nc1ccc(F)c(F)c1)C1CCCCC1`, under setting [1], the AC50 is 29.1 µM [rising, single point].

As for `O=C1CSC(c2cn(-c3ccccc3)nc2-c2cc3ccccc3o2)N1Cc1ccccc1` (stereo not drawn), the AC50 under setting [1] is 10.3 µM [rising, partial curve, poor fit].

For the compound `CCCOc1ccc(C(=O)C(CN2CCOCC2)c2ccccc2)cc1` (stereo not drawn), under setting [1], the concentration at half-maximal activity (AC50) is 9.2 µM [falling, partial curve].

As for `Nc1[nH]n(-c2ccccc2)c(=O)c1N=Nc1ccc2ncsc2c1`, the AC50 runs as follows: under setting [1], 8.91 µM [falling, partial curve, poor fit]; under setting [2], 0.316 µM [rising, full curve, poor fit].

Consider `COc1ccc(Nc2c([N+](=O)[O-])ccc3c2=NC2(CCCCC2)N=3)cc1`, for which, under setting [1], the concentration at half-maximal activity (AC50) is 17.8 µM [rising, partial curve, poor fit].

As for `COC(=O)c1ccc(Sc2nnnn2-c2ccccc2)c([N+](=O)[O-])c1`, the concentration at half-maximal activity (AC50) under setting [1] is 35.5 µM [falling, single point].

For `O=C1CN(C(=O)CSc2nc3cc(Cl)ccc3c(=O)n2Cc2ccccc2)c2ccccc2N1`, the concentration at half-maximal activity (AC50) under setting [1] was 6.51 µM [falling, single point].

As to `O=C1N/C(=N/c2ccccn2)SC1Cc1ccccc1` (stereo not drawn), under setting [1], the AC50 was 35.5 µM [falling, single point].

Regarding `CCOC(=O)Cc1ccc(NCc2ccc(Cl)cc2)cc1`, the concentration at half-maximal activity (AC50) under setting [1] is 14.1 µM [rising, single point].

For `COCCCNC(=O)/C(C#N)=C/c1c(N2CCN(c3ccc(OC)cc3)CC2)nc2c(C)cccn2c1=O`, under setting [1], the concentration at half-maximal activity (AC50) was 35.5 µM [falling, single point].

As to `CCOC(=O)Cc1csc(NC(=O)c2cc(C)cc(C)c2)n1`, the half-maximal activity concentration (AC50) under setting [1] is 17.8 µM [falling, single point].

As for `Cc1ccc(NC(=S)c2ccc(N(C)C)cc2)cc1`, under setting [1], the AC50 is 29.1 µM [falling, single point].

Turning to `Cc1noc(/C=C/c2ccco2)c1S(=O)(=O)N1CCC(C(=O)N2c3ccccc3CC2C)CC1` (stereo not drawn), under setting [1], the concentration at half-maximal activity (AC50) was 3.55 µM [falling, single point].

Take `Cc1c(Cl)c([N+](=O)[O-])nn1CC(=O)NCc1cccs1`: the AC50 under setting [1] was 29.1 µM [rising, single point].

As to `O=C(CSc1nc2ccccc2nc1N1CCCCC1)N1CCN(c2ccccc2)CC1`, under setting [1], the AC50 is 8.91 µM [falling, partial curve, poor fit].

On to `COc1ccc(C(C[N+](=O)[O-])c2c(C)[nH]n(-c3ccccc3)c2=O)cc1` (stereo not drawn), for which the AC50 is 17.8 µM [rising, partial curve] under setting [1] and 25.1 µM [falling, single point] under setting [2].

On to `COc1ccc(C2c3c(ncn(CCCO)c3=N)Oc3ccc4ccccc4c32)cc1OC` (stereo not drawn), for which the AC50 under setting [1] was 35.5 µM [falling, single point].

Consider `Cc1cc(/C=C(\C#N)C(=O)N2CCOCC2)c(C)n1C1CCCC1`, for which the AC50 under setting [1] was 5.62 µM [rising, full curve, poor fit].

As to `NC1=NC(c2ccc(Cl)cc2)C(C(=O)c2ccccc2)N1` (stereo not drawn), the AC50 is 35.5 µM [rising, single point] under setting [1] and 25.1 µM [falling, single point] under setting [2].

Regarding `O=C(NC1CCCC1)c1cc(-c2cccs2)on1`, the AC50 under setting [1] was 0.1 µM [falling, full curve, poor fit].

As for `Cc1cccc(NC(=O)Cn2c(=O)oc3ccccc32)c1`, under setting [1], the AC50 was 2.51 µM [falling, full curve].

For `CC1(c2nnc(-c3ccc(Cl)cc3)o2)CC(c2c(Cl)cccc2Cl)=NO1` (stereo not drawn), under setting [1], the AC50 is 2.82 µM [rising, full curve, poor fit].

For `CCOC(=O)c1ccc(NC(=S)NNC(=O)C2(C)CC2(Cl)Cl)cc1` (stereo not drawn), the half-maximal activity concentration (AC50) under setting [1] is 3.26 µM [falling, partial curve].
